Test results: publication PMC7540926
No constants are given. Whether binding was seen depends on the method and setting. Binding seen in cells or lysates may run through a third protein. Some entries that bind do so weakly or less than the wild type.

Sequences of proteins named here, by UniProt entry; tags and fusion partners are left off.
UniProt Q8C3P7: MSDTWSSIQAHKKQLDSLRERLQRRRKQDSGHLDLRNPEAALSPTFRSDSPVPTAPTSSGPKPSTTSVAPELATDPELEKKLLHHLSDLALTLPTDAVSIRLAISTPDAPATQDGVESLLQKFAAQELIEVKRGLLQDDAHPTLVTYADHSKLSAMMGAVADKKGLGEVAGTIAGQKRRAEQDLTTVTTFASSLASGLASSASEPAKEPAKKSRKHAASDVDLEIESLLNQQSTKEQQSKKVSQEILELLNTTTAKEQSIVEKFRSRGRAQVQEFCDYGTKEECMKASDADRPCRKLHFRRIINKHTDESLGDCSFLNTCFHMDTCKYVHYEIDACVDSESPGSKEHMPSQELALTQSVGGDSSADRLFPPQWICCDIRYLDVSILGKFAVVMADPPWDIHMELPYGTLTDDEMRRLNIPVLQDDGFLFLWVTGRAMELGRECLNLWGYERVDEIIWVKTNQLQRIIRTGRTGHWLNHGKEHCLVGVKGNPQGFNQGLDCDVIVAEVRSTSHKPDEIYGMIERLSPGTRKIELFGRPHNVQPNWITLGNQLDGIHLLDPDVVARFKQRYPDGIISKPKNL

Molecular target: myc-Mettl3 (mouse) (UniProt Q8C3P7)
Experiment: co-IP; HEK293T cells co-transfected for 48 h and lysed in 1% Triton X-100, 1 mM EDTA, 1 mM EGTA, 50 mM NaF, 5 mM Na-pyrophosphate in PBS; anti-myc antibodies on protein A-Sepharose overnight at 4°C; Western blots for myc, V5 and METTL14

binding: binds
B1: endogenous METTL14 (protein, UniProt Q9HCE5 1-456)
chain: MDSRLQEIRERQKLRRQLLAQQLGAESADSIGAVLNSKDEQREIAETRETCRASYDTSAPNAKRKYLDEGETDEDKMEEYKDELEMQQDEENLPYEEEIYKDSSTFLKGTQSLNPHNDYCQHFVDTGHRPQNFIRDVGLADRFEEYPKLRELIRLKDELIAKSNTPPMYLQADIEAFDIRELTPKFDVILLEPPLEEYYRETGITANEKCWTWDDIMKLEIDEIAAPRSFIFLWCGSGEGLDLGRVCLRKWGYRRCEDICWIKTNKNNPGKTKTLDPKAVFQRTKEHCLMGIKGTVKRSTDGDFIHANVDIDLIITEEPEIGNIEKPVEIFHIIEHFCLGRRRLHLFGRDSTIRPGWLTVGPTLTNSNYNAETYASYFSAPNSYLTGCTEEIERLRPKSPPPKSKSDRGGGAPRGGGRGGTSAGRGRERNRSNFRGERGGFRGGRGGAHRGGFPPR
